Experimental data reported in paper PMC9616898.
Results are given in words; binding and its absence hold for the method and conditions named. Binding seen in cells or lysates may run through a third protein. Some results given as binding are weak or reduced against the parent protein; the word gives no strength.

By UniProt entry, the sequences of proteins in these tests, tags left out.
UniProt Q9Y6Q9: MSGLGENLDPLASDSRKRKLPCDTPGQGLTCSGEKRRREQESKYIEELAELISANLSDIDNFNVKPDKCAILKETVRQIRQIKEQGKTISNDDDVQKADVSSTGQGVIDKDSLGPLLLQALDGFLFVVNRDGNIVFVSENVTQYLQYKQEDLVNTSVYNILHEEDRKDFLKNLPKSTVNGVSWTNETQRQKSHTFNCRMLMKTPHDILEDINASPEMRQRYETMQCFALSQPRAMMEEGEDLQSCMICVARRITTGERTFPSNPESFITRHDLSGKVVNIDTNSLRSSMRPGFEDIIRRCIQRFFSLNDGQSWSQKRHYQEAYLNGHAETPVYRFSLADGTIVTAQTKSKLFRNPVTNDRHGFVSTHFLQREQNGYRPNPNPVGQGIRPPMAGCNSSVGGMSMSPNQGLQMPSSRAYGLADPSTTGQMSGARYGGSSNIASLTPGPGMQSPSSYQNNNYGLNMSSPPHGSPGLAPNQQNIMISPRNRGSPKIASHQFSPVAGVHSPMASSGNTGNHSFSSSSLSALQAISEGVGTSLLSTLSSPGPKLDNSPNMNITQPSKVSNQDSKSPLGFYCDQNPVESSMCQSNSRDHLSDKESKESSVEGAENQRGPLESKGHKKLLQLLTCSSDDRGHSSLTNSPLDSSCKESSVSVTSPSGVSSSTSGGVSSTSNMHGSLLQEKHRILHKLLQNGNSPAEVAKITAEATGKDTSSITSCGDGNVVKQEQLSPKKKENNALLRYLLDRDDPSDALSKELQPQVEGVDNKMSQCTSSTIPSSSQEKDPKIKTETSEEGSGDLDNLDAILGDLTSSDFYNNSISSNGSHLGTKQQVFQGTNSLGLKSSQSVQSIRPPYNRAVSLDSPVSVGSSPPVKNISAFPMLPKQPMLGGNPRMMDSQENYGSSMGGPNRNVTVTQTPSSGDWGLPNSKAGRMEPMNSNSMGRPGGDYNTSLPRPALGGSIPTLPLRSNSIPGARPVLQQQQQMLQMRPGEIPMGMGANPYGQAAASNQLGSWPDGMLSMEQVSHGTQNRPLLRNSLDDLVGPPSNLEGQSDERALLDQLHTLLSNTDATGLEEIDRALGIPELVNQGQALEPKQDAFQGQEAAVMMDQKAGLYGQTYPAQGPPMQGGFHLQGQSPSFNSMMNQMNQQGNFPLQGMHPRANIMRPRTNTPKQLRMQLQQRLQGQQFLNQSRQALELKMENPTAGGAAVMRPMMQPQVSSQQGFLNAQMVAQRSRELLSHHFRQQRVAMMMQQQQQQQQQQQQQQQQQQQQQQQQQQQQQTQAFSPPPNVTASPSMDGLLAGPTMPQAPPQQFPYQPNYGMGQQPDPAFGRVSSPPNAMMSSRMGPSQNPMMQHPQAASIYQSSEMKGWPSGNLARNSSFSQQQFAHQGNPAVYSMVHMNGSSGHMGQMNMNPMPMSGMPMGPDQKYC

Biological target: T1, endogenous coactivator-associated arginine methyltransferase 1 (CARM1) (human (endogenous in MKN28 and MKN1)) (UniProt Q86X55)
T1 sequence: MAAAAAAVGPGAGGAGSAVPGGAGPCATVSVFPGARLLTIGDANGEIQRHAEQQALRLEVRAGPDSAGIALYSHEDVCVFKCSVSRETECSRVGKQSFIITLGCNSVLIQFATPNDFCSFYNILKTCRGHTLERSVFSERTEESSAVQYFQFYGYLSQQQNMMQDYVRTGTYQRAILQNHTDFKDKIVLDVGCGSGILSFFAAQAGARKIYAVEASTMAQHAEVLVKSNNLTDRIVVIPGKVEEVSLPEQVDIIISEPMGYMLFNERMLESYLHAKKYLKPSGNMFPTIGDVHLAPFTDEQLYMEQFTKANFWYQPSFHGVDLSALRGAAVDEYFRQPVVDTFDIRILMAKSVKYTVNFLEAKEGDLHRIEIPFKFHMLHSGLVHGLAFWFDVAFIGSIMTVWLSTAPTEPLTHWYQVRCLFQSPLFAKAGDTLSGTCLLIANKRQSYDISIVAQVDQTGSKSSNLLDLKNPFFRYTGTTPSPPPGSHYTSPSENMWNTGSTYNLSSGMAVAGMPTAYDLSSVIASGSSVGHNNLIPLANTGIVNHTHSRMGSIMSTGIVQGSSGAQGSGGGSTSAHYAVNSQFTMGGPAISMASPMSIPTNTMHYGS
Test: co-IP; endogenous CARM1 and ACTR in control and exon 7-deleted MKN1 cells, in MKN28 cells overexpressing LRRFIP2 variant 2 or 3, and in MKN1 cells overexpressing LRRFIP2 variant 2; IP buffer (50 mM Tris pH 7.4, 150 mM NaCl, 1% Triton X-100, 0.5% sodium deoxycholate, 2 mM EDTA, 10% glycerol), Dynabeads

- binding: binds
Substance: endogenous ACTR/SRC3/AIB1/NCOA3 (p160 coactivator) (from UniProt Q9Y6Q9 1-1424)
